Laboratory results: PubChem BioAssay AID504786 (Drosophila RNAi Screening Center, 2011)
Assay: 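Positive regulators of HIF-driven reporter output in Drosophila cells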 (primary screen). Cells: Drosophila S2 cells with a stable HIF luciferase reporter. Knock-down reagent: long dsRNA against Drosophila genes, about 0.2 µg dsRNA per well of a 384-well plate. Timing: three days of knock-down, then 20 h of DFO before reading. Treatment: desferrioxamine (DFO) at 100 µM, an iron chelator that mimics hypoxia, for 20 h. Measured: 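HIF reporter luminescence in cells given 100 µM DFO for 20 h, using the mouse ldh-a hypoxia-response element, scored as per-plate z-scores; higher means greater loss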. Scale: z-score: higher = stronger loss of HIF reporter signal.
In all, the deposit lists about 21,000 reagents; shown is an unselected part of those with a known target gene and a result. 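Primary screen; positive scores mean lost reporter signal, so the sign may be inverted from the usual convention.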

bdl (GeneID 33635) [SID104180063] → z-score, replicate 1 = -0.3; z-score, replicate 2 = -0.3
CG6195 (GeneID 42343) [SID104195781] → z-score, replicate 1 = -0.3; z-score, replicate 2 = -0.2
CG7091 (GeneID 41590) [SID104192736] → z-score, replicate 1 = -0.3; z-score, replicate 2 = -0.5
CG7091 (GeneID 41590) [SID104195989] → z-score, replicate 1 = 0; z-score, replicate 2 = 0.3
CG33333 (GeneID 2768672) [SID104193025] → z-score, replicate 1 = -0.3; z-score, replicate 2 = -0.2
PIG-H (GeneID 40944) [SID104194648] → z-score, replicate 1 = -0.3; z-score, replicate 2 = -0.3
Ras64B (GeneID 38494) [SID104188481] → z-score, replicate 1 = -0.4; z-score, replicate 2 = -0.6
SmD2 (GeneID 40781) [SID104192328] → z-score, replicate 1 = 3.2; z-score, replicate 2 = 2.8
Asx (GeneID 36612) [SID104185716] → z-score, replicate 1 = 5.7; z-score, replicate 2 = 2.7
Vmat (GeneID 3346192) [SID104186753] → z-score, replicate 1 = -0.4; z-score, replicate 2 = -0.8
Vmat (GeneID 3346192) [SID104186754] → z-score, replicate 1 = -0.3; z-score, replicate 2 = -0.4
Pgd (GeneID 31185) [SID104198489] → z-score, replicate 1 = -0.3; z-score, replicate 2 = -0.2
EAChm (GeneID 39637) [SID104189802] → z-score, replicate 1 = -0.2; z-score, replicate 2 = -0.4
Hydr1 (GeneID 35930) [SID104186855] → z-score, replicate 1 = -0.3; z-score, replicate 2 = -0.2
Gycbeta100B (GeneID 43682) [SID104193831] → z-score, replicate 1 = -0.2; z-score, replicate 2 = -0.2
Gycbeta100B (GeneID 43682) [SID104193832] → z-score, replicate 1 = -0.3; z-score, replicate 2 = -0.5
Gycbeta100B (GeneID 43682) [SID104196483] → z-score, replicate 1 = -0.2; z-score, replicate 2 = -0.2

Limited to “z-score, replicate 1” (3 entries from above):
Pgd (GeneID 31185) [SID104198489]	-0.3
EAChm (GeneID 39637) [SID104189802]	-0.2
Hydr1 (GeneID 35930) [SID104186855]	-0.3
